The target of assay [1] is thrombin-like serine protease TLSP2 (TLf2) (Protobothrops flavoviridis) (UniProt O13057). In words: SPR; BIAcore X; TLf2 or TLf1 amine-coupled on CM5 chip; BPII or [Asp49] PLA2 injected as analytes (12.5-100 ug/ml) in HBS (10 mM HEPES pH 7.4, 0.15 M NaCl, 3 mM EDTA, 0.005% P-20), 20 uL/min; unmodified CM5 as control; regeneration 10 mM HCl; both purified.
Assay [2] deals with flavoxobin (TLf1) (Protobothrops flavoviridis) (UniProt P05620). The description is as above.

By UniProt entry, the sequences of proteins in these tests, tags left out. Residues count along the entry.
UniProt O13057, residues 25-260: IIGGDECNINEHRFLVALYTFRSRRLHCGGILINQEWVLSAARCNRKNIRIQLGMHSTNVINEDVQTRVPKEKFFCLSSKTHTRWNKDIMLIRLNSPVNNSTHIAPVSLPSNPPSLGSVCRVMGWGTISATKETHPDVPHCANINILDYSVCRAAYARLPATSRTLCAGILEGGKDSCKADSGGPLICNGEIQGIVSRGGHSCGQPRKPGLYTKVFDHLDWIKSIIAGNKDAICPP
UniProt P05620, residues 25-260: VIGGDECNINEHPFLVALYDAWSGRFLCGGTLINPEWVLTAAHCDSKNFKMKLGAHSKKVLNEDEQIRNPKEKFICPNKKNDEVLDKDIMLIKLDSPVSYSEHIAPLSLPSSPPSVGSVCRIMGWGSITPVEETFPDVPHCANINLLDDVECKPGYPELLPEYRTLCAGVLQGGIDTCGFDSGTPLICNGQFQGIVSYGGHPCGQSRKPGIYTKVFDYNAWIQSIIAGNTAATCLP

Results are given in words; binding and its absence hold for the method and conditions named. Some results given as binding are weak or reduced against the parent protein; the word gives no strength.

B1: P. flavoviridis [Asp49] PLA2 (enzyme, UniProt P06859 17-138)
chain: GLWQFENMIIKVVKKSGILSYSAYGCYCGWGGRGKPKDATDRCCFVHDCCYGKVTGCNPKLGKYTYSWNNGDIVCEGDGPCKEVCECDRAAAICFRDNLDTYDRNKYWRYPASNCQEDSEPC
For the molecule B1, the binding entry in assay [1] and in assay [2] was “binds weakly” in each case.

These data come from paper PMC8599580.
